Test system: ApoE-/- mice
Assay: Plasma cholesterol (Infinity Cholesterol, colorimetric) in immunized ApoE-/- mice on HFD
Type: in vivo
Settings: for Plasma cholesterol levels: additional early atherosclerosis study with short tcOPN-PADRE peptide

Sequence	Plasma cholesterol levels (HFD 8 weeks) [mg/dL]	Cholesterol early atherosclerosis (plasma, HFD 8 weeks, mean ± SD) [mg/dL]	Cholesterol advanced atherosclerosis (plasma, HFD 15 weeks, mean ± SD, * significant difference) [mg/dL]
AKFVAAWTLKAAA (PADRE)	813 ± 109	772 ± 154	647 ± 143
AKFVAAWTLKAAAGRGDSLAYGLR (PADRE-tcOPN short) [short tcOPN-PADRE peptide]	772 ± 137	–	–

— patent US20180289780A1, “OSTEOPONTIN AND THROMBIN-CLEAVED FRAGMENT THEREOF AND THEIR USE IN ATHEROSCLEROSIS PREVENTION, INFLAMMATION REDUCTION AND IMPROVING PLAQUE STABILITY” (CardioVax, LLC, priority 2017, published 2018)
